The supplement of paper PMC10849652
The other results are listed elsewhere or left out.

Amino acid sequences for entries named in this document (tags omitted). A change or cut given only in a name is not applied to a line headed by its entry.
UniProt Q86TN4: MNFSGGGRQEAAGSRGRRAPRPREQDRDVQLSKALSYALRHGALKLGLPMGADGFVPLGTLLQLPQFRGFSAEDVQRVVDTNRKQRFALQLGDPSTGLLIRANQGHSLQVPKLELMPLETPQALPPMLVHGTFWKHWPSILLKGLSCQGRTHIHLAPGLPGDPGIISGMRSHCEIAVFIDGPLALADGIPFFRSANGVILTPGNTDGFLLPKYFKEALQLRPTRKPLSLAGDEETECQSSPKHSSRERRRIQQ
UniProt Q5VTQ0: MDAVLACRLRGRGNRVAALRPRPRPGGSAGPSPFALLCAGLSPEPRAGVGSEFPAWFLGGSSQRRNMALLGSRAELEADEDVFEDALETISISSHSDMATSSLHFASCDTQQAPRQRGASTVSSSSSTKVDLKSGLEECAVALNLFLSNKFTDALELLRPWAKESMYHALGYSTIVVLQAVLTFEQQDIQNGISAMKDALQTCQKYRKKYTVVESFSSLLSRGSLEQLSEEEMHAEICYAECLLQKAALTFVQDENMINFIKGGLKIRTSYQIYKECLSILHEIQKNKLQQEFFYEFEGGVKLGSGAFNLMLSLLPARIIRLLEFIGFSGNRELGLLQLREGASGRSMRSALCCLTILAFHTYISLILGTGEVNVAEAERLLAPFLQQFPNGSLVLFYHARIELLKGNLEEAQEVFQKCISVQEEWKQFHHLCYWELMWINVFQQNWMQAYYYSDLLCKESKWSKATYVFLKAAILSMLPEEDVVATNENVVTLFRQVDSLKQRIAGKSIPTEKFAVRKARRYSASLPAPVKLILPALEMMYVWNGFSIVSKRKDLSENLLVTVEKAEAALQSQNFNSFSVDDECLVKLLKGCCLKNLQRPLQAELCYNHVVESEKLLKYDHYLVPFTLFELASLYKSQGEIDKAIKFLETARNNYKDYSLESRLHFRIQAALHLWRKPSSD
UniProt O43715: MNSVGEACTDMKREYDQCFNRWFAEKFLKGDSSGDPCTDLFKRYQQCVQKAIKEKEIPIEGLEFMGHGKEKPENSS
UniProt Q8TDR0: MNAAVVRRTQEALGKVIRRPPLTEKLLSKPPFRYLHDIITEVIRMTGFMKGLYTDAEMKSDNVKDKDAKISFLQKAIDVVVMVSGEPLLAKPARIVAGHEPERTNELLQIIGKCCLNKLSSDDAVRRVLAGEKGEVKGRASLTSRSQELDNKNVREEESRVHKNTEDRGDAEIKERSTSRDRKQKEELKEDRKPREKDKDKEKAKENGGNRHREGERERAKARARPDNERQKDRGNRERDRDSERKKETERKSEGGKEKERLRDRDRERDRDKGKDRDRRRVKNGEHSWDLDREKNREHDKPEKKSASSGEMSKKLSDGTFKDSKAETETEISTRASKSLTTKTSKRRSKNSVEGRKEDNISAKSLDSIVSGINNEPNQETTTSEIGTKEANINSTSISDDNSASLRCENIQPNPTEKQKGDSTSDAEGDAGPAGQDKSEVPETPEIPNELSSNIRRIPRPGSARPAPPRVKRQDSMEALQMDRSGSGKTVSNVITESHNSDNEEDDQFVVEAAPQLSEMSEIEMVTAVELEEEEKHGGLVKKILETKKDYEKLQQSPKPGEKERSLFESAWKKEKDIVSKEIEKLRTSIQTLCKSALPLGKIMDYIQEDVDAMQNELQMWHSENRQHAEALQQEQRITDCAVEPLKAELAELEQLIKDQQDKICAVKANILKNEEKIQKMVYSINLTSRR
UniProt Q96LD4: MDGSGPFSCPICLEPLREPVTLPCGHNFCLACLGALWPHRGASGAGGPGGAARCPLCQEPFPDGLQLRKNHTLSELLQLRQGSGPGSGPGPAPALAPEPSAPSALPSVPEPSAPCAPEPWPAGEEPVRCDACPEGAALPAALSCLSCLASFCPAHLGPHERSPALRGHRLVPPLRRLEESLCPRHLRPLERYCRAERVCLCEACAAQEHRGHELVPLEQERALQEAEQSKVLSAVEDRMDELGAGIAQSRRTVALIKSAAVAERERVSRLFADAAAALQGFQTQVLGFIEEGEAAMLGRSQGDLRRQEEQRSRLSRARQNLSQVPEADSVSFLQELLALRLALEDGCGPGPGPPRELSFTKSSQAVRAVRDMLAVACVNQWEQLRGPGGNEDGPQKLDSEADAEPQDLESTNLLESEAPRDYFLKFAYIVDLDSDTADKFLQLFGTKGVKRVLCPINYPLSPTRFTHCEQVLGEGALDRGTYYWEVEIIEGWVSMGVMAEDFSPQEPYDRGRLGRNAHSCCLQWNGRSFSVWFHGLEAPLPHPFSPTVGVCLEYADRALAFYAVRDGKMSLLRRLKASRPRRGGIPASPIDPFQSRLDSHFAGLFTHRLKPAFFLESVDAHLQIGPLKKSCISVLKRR
UniProt Q13049: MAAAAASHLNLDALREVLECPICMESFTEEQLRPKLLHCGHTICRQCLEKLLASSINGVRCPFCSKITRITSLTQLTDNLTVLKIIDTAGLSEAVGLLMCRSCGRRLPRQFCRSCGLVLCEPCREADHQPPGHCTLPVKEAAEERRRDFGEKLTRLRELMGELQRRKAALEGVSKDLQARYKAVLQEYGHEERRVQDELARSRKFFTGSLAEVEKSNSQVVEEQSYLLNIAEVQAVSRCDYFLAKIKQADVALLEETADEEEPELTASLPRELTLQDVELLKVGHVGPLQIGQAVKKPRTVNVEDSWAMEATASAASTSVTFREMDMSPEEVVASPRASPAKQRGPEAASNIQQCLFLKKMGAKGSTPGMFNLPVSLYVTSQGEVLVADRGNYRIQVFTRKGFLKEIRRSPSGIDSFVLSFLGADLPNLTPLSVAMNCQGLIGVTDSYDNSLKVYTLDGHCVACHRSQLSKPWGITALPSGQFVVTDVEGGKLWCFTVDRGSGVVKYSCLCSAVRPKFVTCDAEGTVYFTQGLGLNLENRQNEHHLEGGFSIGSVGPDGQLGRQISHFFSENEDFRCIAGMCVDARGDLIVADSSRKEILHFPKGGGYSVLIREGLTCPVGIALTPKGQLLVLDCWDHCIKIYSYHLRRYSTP
UniProt P14373: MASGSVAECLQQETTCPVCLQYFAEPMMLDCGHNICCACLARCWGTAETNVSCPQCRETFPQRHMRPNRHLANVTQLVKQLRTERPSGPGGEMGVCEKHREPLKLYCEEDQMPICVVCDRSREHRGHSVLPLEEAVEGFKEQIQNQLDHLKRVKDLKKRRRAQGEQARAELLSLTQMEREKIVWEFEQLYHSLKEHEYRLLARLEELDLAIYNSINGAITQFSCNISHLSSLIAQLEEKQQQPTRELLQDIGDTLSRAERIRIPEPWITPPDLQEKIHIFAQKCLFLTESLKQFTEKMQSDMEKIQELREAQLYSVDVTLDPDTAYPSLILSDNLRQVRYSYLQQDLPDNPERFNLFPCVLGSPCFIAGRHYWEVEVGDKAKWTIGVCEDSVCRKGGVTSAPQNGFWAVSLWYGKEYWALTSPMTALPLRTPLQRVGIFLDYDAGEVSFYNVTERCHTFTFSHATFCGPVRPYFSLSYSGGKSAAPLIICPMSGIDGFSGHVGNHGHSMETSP
UniProt Q9ULT0: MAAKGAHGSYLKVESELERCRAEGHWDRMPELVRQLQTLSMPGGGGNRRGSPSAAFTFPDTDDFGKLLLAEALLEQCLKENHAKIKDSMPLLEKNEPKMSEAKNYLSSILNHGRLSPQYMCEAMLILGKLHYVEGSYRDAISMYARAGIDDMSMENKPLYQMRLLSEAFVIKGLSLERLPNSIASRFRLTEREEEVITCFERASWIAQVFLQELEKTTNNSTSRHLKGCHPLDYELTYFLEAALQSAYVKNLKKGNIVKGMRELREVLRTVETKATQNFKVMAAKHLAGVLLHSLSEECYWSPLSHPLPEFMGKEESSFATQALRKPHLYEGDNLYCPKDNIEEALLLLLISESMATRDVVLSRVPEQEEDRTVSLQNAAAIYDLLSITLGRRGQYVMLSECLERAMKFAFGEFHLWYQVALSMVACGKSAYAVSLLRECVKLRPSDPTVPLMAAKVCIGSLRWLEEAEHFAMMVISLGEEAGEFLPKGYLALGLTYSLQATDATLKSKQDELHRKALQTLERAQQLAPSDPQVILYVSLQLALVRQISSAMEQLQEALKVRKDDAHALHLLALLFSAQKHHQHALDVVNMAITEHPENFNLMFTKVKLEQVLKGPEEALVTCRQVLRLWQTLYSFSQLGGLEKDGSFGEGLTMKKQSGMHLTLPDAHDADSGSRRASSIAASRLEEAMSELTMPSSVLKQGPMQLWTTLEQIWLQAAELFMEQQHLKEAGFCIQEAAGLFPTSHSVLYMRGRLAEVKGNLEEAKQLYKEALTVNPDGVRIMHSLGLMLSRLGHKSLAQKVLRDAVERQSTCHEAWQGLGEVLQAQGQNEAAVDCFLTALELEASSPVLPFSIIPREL
UniProt Q12999: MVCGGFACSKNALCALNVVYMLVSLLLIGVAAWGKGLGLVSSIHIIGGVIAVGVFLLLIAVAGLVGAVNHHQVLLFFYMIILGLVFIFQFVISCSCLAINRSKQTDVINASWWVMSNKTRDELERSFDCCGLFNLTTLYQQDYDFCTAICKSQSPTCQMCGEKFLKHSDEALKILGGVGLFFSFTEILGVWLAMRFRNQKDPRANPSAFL
UniProt Q12899: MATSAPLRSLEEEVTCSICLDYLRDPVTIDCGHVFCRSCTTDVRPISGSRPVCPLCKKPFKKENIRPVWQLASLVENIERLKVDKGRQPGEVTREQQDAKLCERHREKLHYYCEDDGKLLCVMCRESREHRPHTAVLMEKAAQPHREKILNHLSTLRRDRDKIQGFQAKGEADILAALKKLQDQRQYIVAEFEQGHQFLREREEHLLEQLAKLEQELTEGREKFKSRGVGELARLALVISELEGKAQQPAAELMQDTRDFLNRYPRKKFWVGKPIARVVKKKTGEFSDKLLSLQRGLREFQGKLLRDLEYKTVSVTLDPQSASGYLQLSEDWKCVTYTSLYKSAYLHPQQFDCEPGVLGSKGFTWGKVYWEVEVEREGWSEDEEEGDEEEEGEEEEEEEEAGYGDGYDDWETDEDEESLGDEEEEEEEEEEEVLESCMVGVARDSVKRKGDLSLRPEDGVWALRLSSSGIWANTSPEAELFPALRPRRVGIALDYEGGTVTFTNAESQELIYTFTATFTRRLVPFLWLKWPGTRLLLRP
UniProt O14817: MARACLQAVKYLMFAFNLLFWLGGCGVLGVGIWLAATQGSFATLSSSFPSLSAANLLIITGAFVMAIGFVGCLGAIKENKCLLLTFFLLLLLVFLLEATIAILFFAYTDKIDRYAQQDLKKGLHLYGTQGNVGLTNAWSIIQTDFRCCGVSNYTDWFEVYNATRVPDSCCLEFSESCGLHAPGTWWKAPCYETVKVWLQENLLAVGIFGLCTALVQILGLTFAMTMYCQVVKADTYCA
UniProt Q6ZTA4: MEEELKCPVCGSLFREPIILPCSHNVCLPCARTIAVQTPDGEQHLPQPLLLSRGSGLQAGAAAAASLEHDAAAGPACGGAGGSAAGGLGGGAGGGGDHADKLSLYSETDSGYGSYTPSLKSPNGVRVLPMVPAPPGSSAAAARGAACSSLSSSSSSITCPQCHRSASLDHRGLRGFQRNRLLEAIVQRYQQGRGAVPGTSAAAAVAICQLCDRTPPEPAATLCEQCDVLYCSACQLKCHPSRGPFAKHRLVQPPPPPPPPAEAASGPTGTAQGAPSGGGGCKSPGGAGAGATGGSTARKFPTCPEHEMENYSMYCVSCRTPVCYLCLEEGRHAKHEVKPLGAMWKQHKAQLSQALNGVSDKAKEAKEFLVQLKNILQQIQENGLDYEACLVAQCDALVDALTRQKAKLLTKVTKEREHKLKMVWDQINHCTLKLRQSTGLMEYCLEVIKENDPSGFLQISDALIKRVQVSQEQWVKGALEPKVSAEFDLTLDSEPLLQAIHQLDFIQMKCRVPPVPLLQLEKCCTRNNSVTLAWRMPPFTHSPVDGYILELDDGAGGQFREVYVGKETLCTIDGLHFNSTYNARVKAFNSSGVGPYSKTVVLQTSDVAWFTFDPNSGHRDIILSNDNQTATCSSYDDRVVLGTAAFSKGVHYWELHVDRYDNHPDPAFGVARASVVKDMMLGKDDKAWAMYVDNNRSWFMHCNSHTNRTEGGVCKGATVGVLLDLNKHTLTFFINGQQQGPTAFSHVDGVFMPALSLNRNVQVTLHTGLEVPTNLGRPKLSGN

Key:
Assay in all cases: log2 fold change, soluble protein after heating vs DMSO (PISA); higher = thermal stabilisation; K562 lysate, 10 uM; active = over 0.2 and 3.5 SD of the protein, either way, in both replicates (recomputed)
vemurafenib = compound: CCCS(=O)(=O)Nc1ccc(F)c(C(=O)c2c[nH]c3ncc(-c4ccc(Cl)cc4)cc23)c1F [vemurafenib]
In short: (§1)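 Following dounce homogenisation of K562 pellets in PBS pH 7.4 with 1 mM MgCl2, crude extract at 1 mg/mL protein was incubated for 30 min with 10 μM compound. Aliquots were then heated for 3 min over 48°C-58°C and pooled, NP-40 was added to 0.5% at 4°C, and soluble protein was recovered as the supernatant at 21,000xg for 90 min. Channel-sum-equalised TMTpro 16plex LC-MS/MS quantified this protein. Each value, from duplicates, is a log-two fold change in thermal stability relative to solvent controls.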

[1] = compound: CCCS(=O)(=O)Nc1ccc(F)c(C(=O)c2c[nH]c3ncc(Cl)cc23)c1F
In short: as §1

barasertib = compound: CCN(CCCOc1ccc2c(Nc3cc(CC(=O)Nc4cccc(F)c4)[nH]n3)ncnc2c1)CCOP(=O)(O)O [barasertib]
In short: as §1

volasertib = compound: CC[C@@H]1C(=O)N(C)c2cnc(Nc3ccc(C(=O)N[C@H]4CC[C@H](N5CCN(CC6CC6)CC5)CC4)cc3OC)nc2N1C(C)C [volasertib]
In short: as §1

[2] = compound: CCn1c(C(=O)N(C2CC2)C2CC2)cc2c3c(ncn3C)c(Nc3cc(C)n(C)n3)nc21
In short: as §1

[3] = compound: CCn1cc(-c2ccnc3[nH]c(-c4cccc(CN(C)C)c4)cc23)c(-c2ccc(NC(=O)N(C)C)cc2)n1
In short: as §1

[4] = compound: CN1CCC(CNc2ccc3ncc(-c4cccc(OC(F)(F)F)c4)n3n2)CC1
In short: as §1

saracatinib = compound: CN1CCN(CCOc2cc(OC3CCOCC3)c3c(Nc4c(Cl)ccc5c4OCO5)ncnc3c2)CC1 [saracatinib]
In short: as §1

sotrastaurin = compound: CN1CCN(c2nc(C3=C(c4c[nH]c5ccccc45)C(=O)NC3=O)c3ccccc3n2)CC1 [sotrastaurin]
In short: as §1

alvocidib = compound: CN1CC[C@H](c2c(O)cc(O)c3c(=O)cc(-c4ccccc4Cl)oc23)[C@H](O)C1 [alvocidib]
In short: as §1

Tubastatin A = compound: CN1CCc2c(c3ccccc3n2Cc2ccc(C(=O)NO)cc2)C1 [Tubastatin A]
In short: as §1

[5] = compound: CNC(=O)C1=CC=CC=C1NC2=NC(=NC=C2Cl)NC3=C(C=C(C=C3)N4CCOCC4)OC
In short: as §1

defactinib = compound: CNC(=O)c1ccc(Nc2ncc(C(F)(F)F)c(NCc3nccnc3N(C)S(C)(=O)=O)n2)cc1 [defactinib]
In short: as §1

[6] = compound: CNc1nc(-c2ccc3c(N)n[nH]c3c2)cc(N2C[C@@H](C(=O)NC3CCCCC3)CC[C@H]2C)n1
In short: as §1

alisertib = compound: COc1cc(Nc2ncc3c(n2)-c2ccc(Cl)cc2C(c2c(F)cccc2OC)=NC3)ccc1C(=O)O [alisertib]
In short: as §1

[7] = compound: COc1cc2nc(-c3cc(F)ccc3O)nc(N[C@@H]3CNC[C@H]3C(C)(C)O)c2cc1OC
In short: as §1

gefitinib = compound: COc1cc2ncnc(Nc3ccc(F)c(Cl)c3)c2cc1OCCCN1CCOCC1 [gefitinib]
In short: as §1

[8] = compound: CC[C@@H]1C(=O)N(C)c2cnc(Nc3ccc(C(=O)NC4CCN(C)CC4)cc3OC)nc2N1C1CCCC1
In short: as §1

encorafenib = compound: COC(=O)N[C@@H](C)CNc1nccc(-c2cn(C(C)C)nc2-c2cc(Cl)cc(NS(C)(=O)=O)c2F)n1 [encorafenib]
In short: as §1

[9] = compound: COC(=O)[C@H](CCSC)NC(=O)C1=C(C=C(C=C1)NC[C@H](CS)N)C2=CC=CC=C2
In short: as §1

Measured: log2 fold change

TRPT1 isoform 4 (UniProt Q86TN4)
inactive: vemurafenib -0.102 | [1] 0.128 | barasertib -0.366 | volasertib 0.123 | [2] -0.044 | [3] 0.041 | [4] -0.01 | saracatinib 0.005 | sotrastaurin 0.023 | alvocidib -0.06 | Tubastatin A 0.112 | [5] -0.091 | defactinib 0.131 | [6] 0 | alisertib -0.042 | [7] 0.121 | gefitinib -0.035

TTC39B (UniProt Q5VTQ0)
inactive: vemurafenib 0.114 | [1] 0.027 | barasertib 0.271 | volasertib -0.019 | [2] 0.029 | saracatinib -0.024 | Tubastatin A -0.03 | [5] -0.095 | defactinib 0.112 | [6] -0.145 | [7] 0.005

TRIO (UniProt O75962)
inactive: vemurafenib 0.064 | [1] 0.052 | barasertib 0.034 | [8] -0.005 | volasertib -0.006 | [3] -0.071 | [4] -0.038 | saracatinib -0.023 | sotrastaurin 0.043 | alvocidib 0.004 | [5] 0.019 | defactinib 0.011 | [6] 0.021 | encorafenib -0.062 | [9] 0.008 | alisertib -0.011 | [7] 0.027 | gefitinib -0.028

TRIAP1 (UniProt O43715)
inactive: vemurafenib -0.016 | [1] -0.012 | [8] 0.019 | volasertib 0.106 | [2] -0.045 | [3] 0.087 | [4] -0.073 | saracatinib 0.041 | sotrastaurin 0.062 | alvocidib 0.207 | Tubastatin A 0.147 | [5] 0.073 | defactinib 0.104 | [6] -0.054 | encorafenib 0.036 | [9] -0.114 | alisertib 0.072 | [7] -0.003 | gefitinib -0.08

TTC21B (UniProt Q7Z4L5)
inactive: vemurafenib -0.056 | barasertib -0.043 | [8] 0.031 | [3] 0.034 | [4] -0.109 | saracatinib 0.159 | alvocidib 0.013 | [5] 0.265 | defactinib 0.202 | [6] 0.206 | encorafenib 0.124 | [9] -0.058 | alisertib -0.027 | gefitinib 0.083

TRAF3IP1 (UniProt Q8TDR0)
inactive: vemurafenib -0.008 | [1] -0.03 | barasertib 0.007 | [8] 0.035 | volasertib -0.147 | [2] -0.165 | saracatinib -0.088 | sotrastaurin 0.059 | Tubastatin A 0.014 | [5] -0.064 | defactinib -0.009 | [6] -0.166 | encorafenib 0.079 | [9] -0.065 | [7] -0.017

TRIM47 (UniProt Q96LD4)
inactive: vemurafenib -0.071 | [1] -0.052 | [8] 0.127 | volasertib -0.073 | [3] 0.137 | [4] -0.035 | saracatinib 0.346 | alvocidib 0.022 | [5] -0.031 | defactinib 0.138 | [6] -0.09 | encorafenib -0.105 | [9] 0.055 | alisertib 0.069 | [7] 0.122 | gefitinib -0.014

TTLL12 (UniProt V9GY16)
inactive: vemurafenib 0.261 | barasertib 0.102 | [8] 0.227 | [2] -0.465 | [3] -0.393 | [4] 0.133 | sotrastaurin -0.175 | alvocidib 0.003 | Tubastatin A 0.177 | [5] 0.077 | defactinib -0.095 | encorafenib -0.174 | [9] 0.146

TRIM32 (UniProt Q13049)
inactive: vemurafenib 0.002 | [1] 0.101 | barasertib 0.056 | [8] 0.062 | volasertib -0.155 | [2] -0.028 | [3] -0.035 | [4] -0.008 | saracatinib -0.026 | sotrastaurin 0.018 | alvocidib -0.018 | Tubastatin A 0.01 | [5] -0.034 | defactinib 0.03 | [6] -0.02 | encorafenib 0.15 | [9] -0.125 | alisertib 0.017 | [7] -0.012 | gefitinib 0.006

TRIM27 (UniProt P14373)
inactive: vemurafenib 0.191 | barasertib -0.014 | [2] 0 | [3] 0.02 | [4] 0.007 | sotrastaurin -0.02 | alvocidib 0.046 | Tubastatin A -0.066 | [5] -0.006 | defactinib 0.001 | alisertib -0.027 | gefitinib 0.119

TTC7A isoform 4 (UniProt Q9ULT0)
inactive: alisertib 0.085 | gefitinib 0.043

TSPAN31 (UniProt Q12999)
inactive: vemurafenib 0.043 | saracatinib -0.086 | sotrastaurin 0.086 | defactinib -0.009 | [6] -0.013

TRIM26 (UniProt Q12899)
inactive: [1] 0.04 | volasertib 0.156 | [2] 0.077 | sotrastaurin 0.043 | Tubastatin A 0.151 | alisertib 0.158 | [7] -0.231 | gefitinib -0.067

TRIM16 (UniProt O95361)
inactive: [8] -0.012 | saracatinib 0.029 | [5] -0.052 | [6] 0 | encorafenib 0.037 | [9] -0.164

TSPAN4 (UniProt O14817)
inactive: vemurafenib -0.108 | [8] 0.094 | [2] -0.13 | sotrastaurin 0.068 | Tubastatin A -0.064 | [5] 0.098 | defactinib 0.015 | encorafenib 0.029 | [9] 0.075

TRIM67 (UniProt Q6ZTA4)
inactive: [1] -0.089 | [8] -0.076 | volasertib 0.001 | [2] 0.047 | Tubastatin A -0.272 | [5] -0.02 | encorafenib -0.076 | [9] -0.047 | [7] 0.303
